# Results of single-concentration screens

Chains of the proteins cited; added tags and fusions are not shown. Residues count along the entry.
UniProt Q8IDJ8, 1-583: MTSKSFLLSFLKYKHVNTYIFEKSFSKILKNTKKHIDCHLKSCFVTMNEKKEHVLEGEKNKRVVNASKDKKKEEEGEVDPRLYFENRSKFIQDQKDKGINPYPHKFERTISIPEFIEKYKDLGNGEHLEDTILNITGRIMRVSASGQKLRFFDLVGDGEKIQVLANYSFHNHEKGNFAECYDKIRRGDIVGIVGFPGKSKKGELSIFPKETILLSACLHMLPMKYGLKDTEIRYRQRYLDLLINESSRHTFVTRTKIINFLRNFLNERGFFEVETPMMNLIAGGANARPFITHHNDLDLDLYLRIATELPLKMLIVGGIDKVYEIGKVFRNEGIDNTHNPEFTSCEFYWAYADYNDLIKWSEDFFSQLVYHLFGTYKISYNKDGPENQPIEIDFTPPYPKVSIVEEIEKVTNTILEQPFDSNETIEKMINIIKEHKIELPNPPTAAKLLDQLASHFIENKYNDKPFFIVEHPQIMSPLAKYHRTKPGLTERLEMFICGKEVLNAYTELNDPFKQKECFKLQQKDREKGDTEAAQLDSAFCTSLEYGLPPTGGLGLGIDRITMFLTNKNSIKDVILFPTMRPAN
UniProt P9WFT3, whole entry: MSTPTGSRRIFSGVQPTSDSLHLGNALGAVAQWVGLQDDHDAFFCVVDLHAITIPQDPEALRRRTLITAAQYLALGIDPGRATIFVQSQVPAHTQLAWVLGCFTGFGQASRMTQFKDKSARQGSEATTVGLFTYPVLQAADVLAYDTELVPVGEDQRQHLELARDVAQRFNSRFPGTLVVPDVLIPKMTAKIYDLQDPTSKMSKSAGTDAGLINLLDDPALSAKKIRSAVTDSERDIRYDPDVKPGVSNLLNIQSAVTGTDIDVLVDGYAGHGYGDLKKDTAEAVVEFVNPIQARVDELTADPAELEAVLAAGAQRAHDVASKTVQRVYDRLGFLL
UniProt P9WPC5, whole entry: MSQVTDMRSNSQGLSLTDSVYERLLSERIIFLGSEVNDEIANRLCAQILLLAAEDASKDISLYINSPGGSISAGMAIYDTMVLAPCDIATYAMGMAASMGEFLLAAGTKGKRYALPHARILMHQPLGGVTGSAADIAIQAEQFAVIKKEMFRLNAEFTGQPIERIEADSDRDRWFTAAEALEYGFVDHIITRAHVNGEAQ
UniProt P9WPC3, whole entry partner: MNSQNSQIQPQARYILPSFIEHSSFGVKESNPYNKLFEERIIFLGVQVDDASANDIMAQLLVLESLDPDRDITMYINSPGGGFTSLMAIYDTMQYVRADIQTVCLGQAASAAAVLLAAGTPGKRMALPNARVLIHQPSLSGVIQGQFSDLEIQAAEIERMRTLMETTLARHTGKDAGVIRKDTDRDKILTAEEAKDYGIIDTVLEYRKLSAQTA
UniProt Q4DA54, 1-478: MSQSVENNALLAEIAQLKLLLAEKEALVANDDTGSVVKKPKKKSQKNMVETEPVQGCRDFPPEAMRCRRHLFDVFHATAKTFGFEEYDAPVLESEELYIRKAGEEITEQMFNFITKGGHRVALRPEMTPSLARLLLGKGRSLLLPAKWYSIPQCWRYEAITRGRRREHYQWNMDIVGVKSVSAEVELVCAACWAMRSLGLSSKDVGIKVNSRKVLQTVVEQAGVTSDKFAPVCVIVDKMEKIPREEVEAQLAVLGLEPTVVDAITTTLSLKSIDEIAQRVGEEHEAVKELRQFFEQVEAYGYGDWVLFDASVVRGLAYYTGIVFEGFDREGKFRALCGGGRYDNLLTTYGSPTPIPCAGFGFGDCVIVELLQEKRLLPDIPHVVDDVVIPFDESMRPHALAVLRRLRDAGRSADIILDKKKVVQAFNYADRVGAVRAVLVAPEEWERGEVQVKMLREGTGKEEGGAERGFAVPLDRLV

PfKRS1: 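Lysine-tRNA ligase, Plasmodium falciparum 3D7 (UniProt Q8IDJ8). Enzyme assay of the cytosolic lysyl-tRNA synthetase in 384-well plates, read by luminescence. Concentration: 30 µM. Higher reads as stronger inhibition, judged from the few compounds that gave an IC50. Size under these conditions: about 69,000 compounds, about 49 of them at 50% or above in at least one test.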
MtTrpRS: 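Tryptophan-tRNA ligase, Mycobacterium tuberculosis (UniProt P9WFT3). Enzyme assay of tryptophanyl-tRNA synthetase; the read-out is not stated. Tested at 10 µM. Direction is not recorded; retested compounds ran higher, which suggests that high means inhibition. Size under these conditions: about 65,000 compounds, about 64 of them at 50% or above in at least one test.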
ClpP1P2: 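Protease assay of ClpP1P2, read by the AMC dye that it sets free. Target: ClpP1P2, Mycobacterium tuberculosis (UniProt P9WPC5 and UniProt P9WPC3). Tested at 50 µM. Higher reads as stronger inhibition, judged from the few compounds that gave an IC50. Most other retested compounds had strongly negative values. Of about 69,000 compounds tested this way, about 10 (0.015%) reached 50% or more in at least one test.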
TcHisRS: 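Histidine-tRNA ligase, Trypanosoma cruzi CL Brener (UniProt Q4DA54). Enzyme assay of histidyl-tRNA synthetase; the read-out is not stated. Tested at 30 µM. Direction is inferred from retests: higher values go with stronger inhibition. Of about 69,000 compounds tested this way, about 31 (0.045%) reached 50% or more in at least one test.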

The filed quantity is “Percent Effect” (%). The record does not define 0% and 100%; most values in the screen are far below 50% and negative numbers occur (in some assays of this library far below -100). This is an unselected part of the compounds tested.

Cc1ccc(Cl)c2ccc(NC(CO)CO)nc12 gave PfKRS1: 9.232%; MtTrpRS: -5.649%; ClpP1P2: 3.995%; TcHisRS: 6.878%.
Cc1cc(C(F)(F)F)nc(CCNc2nc(C)nc3c2cnn3C)n1 gave PfKRS1: 0.1508%; MtTrpRS: 1.127%; ClpP1P2: -6.014%; TcHisRS: -0.8%.
CC(O)CN1CCc2onc(-c3ccccc3F)c2C1 (stereo not shown) gave PfKRS1: 9.967%; MtTrpRS: 2.719%; ClpP1P2: -16.61%; TcHisRS: 6.098%.
O=C(NCc1ccccn1)[C@]12COC[C@H]1CN(C1CCC1)C2 gave PfKRS1: 6.217%; MtTrpRS: 1.994%; ClpP1P2: -1.004%; TcHisRS: -1.622%.
Cc1cc(NS(=O)(=O)c2cnc3onc(C)c3c2)no1 gave PfKRS1: 1.504%; MtTrpRS: -3.372%; ClpP1P2: 0.04474%; TcHisRS: 11.23%.
CC(=O)N1CCC(N2CCN(Cc3ccc(C)o3)C(CCO)C2)CC1 (stereo not shown) gave PfKRS1: -2.619%; MtTrpRS: -3.451%; ClpP1P2: -10.72%; TcHisRS: 3.867%.
CN(C)CCOCC1CN(CC2CCOCC2)Cc2nnn(C)c21 (stereo not shown) gave PfKRS1: 0.03334%; MtTrpRS: -1.844%; ClpP1P2: 2.945%; TcHisRS: 6.78%.
O=C(Nc1cccc(Cl)c1)c1nn(C2CCS(=O)(=O)C2)c2c1CCCC2 (stereo not shown) gave PfKRS1: 10.27%; MtTrpRS: -0.5297%; ClpP1P2: -10.94%; TcHisRS: -19.57%.
Cc1cc(N[C@H]2CCCC[C@@H]2O)n2nccc2n1 gave PfKRS1: 4.177%; MtTrpRS: -1.008%; ClpP1P2: 7.67%; TcHisRS: 5.102%.
OCC1(O)CCCN(Cc2ccccc2OCCc2ccccc2)CC1 (stereo not shown) gave PfKRS1: 2.044%; MtTrpRS: -4.004%; ClpP1P2: -5.49%; TcHisRS: 1.685%.
COCCN(C)C[C@@H]1CN(C(=O)c2ccc(C)c(Cl)c2)C[C@@H]1CO gave PfKRS1: 4.919%; MtTrpRS: 2.641%; ClpP1P2: 4.977%; TcHisRS: 4.523%.
Cc1oncc1C(=O)N[C@@H]1CN(C2CCC2)C[C@@H]2CCCO[C@@H]21 gave PfKRS1: 3.278%; ClpP1P2: -12.57%; TcHisRS: 7.407%.
CCNCc1ccc(OCc2ccc3c(c2)OCCO3)cc1 gave PfKRS1: -7.176%; MtTrpRS: -14.78%; ClpP1P2: 31.09%; TcHisRS: -27.33%.
O=C(NCC1CCOC1)N1CCN(c2ncccn2)CC1 (stereo not shown) gave PfKRS1: 2.315%; MtTrpRS: 3.818%; ClpP1P2: 6.751%; TcHisRS: -1.685%.
Cc1ccc(C(CNC(=O)NCc2ccccn2)N2CCOCC2)o1 (stereo not shown) gave PfKRS1: 0.8272%; MtTrpRS: 6.24%; ClpP1P2: 0.2273%; TcHisRS: 4.118%.
Cc1cc(C)n(C2CN(CC(O)c3ccc4c(c3)OCO4)C2)n1 (stereo not shown) gave PfKRS1: 1.148%; MtTrpRS: 2.638%; ClpP1P2: -0.9562%; TcHisRS: 0%.
Cn1cc(C2COC3(CCN(C(=O)Cc4ccccc4)CC3)C2)cn1 (stereo not shown) gave PfKRS1: 1.17%; ClpP1P2: -2.399%; TcHisRS: 11.56%.
CC(C)Nc1cc(-c2c[nH]nc2C2CCN(C(=O)C3CCC3)C2)ccn1 (stereo not shown) gave PfKRS1: 0.9198%; MtTrpRS: -6.728%; ClpP1P2: -16.09%; TcHisRS: -15.91%.
COc1ccc(C(=O)N2CC(=O)N(C3CCC3)CC(O)C2)c(OC)c1 (stereo not shown) gave PfKRS1: 6.991%; ClpP1P2: 10.38%; TcHisRS: 8.989%.
O=C1[C@H]2CN(C3CCOCC3)C[C@H]2CN1Cc1cccnc1 gave PfKRS1: 0.2706%; MtTrpRS: -4.333%; ClpP1P2: 0.2089%; TcHisRS: 4.348%.
O=C1NC[C@H]2CN(Cc3ccccn3)CCN12 gave PfKRS1: 1.521%; MtTrpRS: -2.695%; ClpP1P2: -16.63%; TcHisRS: 1.493%.
OCCOCCNCC1(c2ccc(F)cc2)CCOC1 (stereo not shown) gave PfKRS1: 2.365%; MtTrpRS: 1.877%; ClpP1P2: -1.702%; TcHisRS: -0.5291%.
CCCNC(=O)c1nn(CC)cc1Cl gave PfKRS1: 2.75%; MtTrpRS: -2.332%; ClpP1P2: -1.818%; TcHisRS: 2.609%.
Cc1noc(C)c1CN1Cc2cnn(C)c2C(COCC2CC2)C1 (stereo not shown) gave PfKRS1: -1.115%; MtTrpRS: -4.527%; ClpP1P2: -7.566%; TcHisRS: 12.81%.
CSc1ccc(CNC2CCN(CCc3ccncc3)CC2)cc1 gave PfKRS1: 4.308%; MtTrpRS: -1.615%; ClpP1P2: 5.142%; TcHisRS: 1.087%.
CC(=O)c1cccc(NC(=O)CCn2nc(-c3cccs3)oc2=O)c1 gave PfKRS1: 0.2769%; MtTrpRS: -2.568%; ClpP1P2: -17.62%; TcHisRS: 1.734%.
Cc1ocnc1C(=O)N1CCN(CCOc2ccccc2)CC1 gave PfKRS1: 2.072%; MtTrpRS: -0.4699%; ClpP1P2: -17.23%; TcHisRS: 9.453%.
CCNc1cc2c(nn1)CCN(C(=O)c1ccoc1)C2 gave PfKRS1: 0.5148%; MtTrpRS: 1.003%; ClpP1P2: -65.31%; TcHisRS: 5.539%.
COc1cccc(C2CCCN2C(=O)c2ccc(=O)n(C)c2)c1 (stereo not shown) gave PfKRS1: 7.997%; MtTrpRS: -2.018%; ClpP1P2: 3.221%; TcHisRS: 4.348%.

For reference, 2 entries once more:

- Cc1cc(N[C@H]2CCCC[C@@H]2O)n2nccc2n1 | PfKRS1: 4.177%; MtTrpRS: -1.008%; ClpP1P2: 7.67%; TcHisRS: 5.102%
- CCNCc1ccc(OCc2ccc3c(c2)OCCO3)cc1 | PfKRS1: -7.176%; MtTrpRS: -14.78%; ClpP1P2: 31.09%; TcHisRS: -27.33%

Source: ChEMBL document CHEMBL3988442, “University of Dundee, Small-Polar-MMV Screening Library” (2021).